Measured data: PubChem BioAssay AID504786 (Drosophila RNAi Screening Center, 2011)

Purpose: 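Knock-downs reducing HIF reporter induction by the iron chelator DFO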 (primary screen)
System: Drosophila S2 cells with a stable HIF luciferase reporter
Knock-down reagent: long dsRNA against Drosophila genes, about 0.2 µg dsRNA per well of a 384-well plate
Timing: three days of knock-down, then 20 h of DFO before reading
Challenge: desferrioxamine (DFO) at 100 µM, an iron chelator that mimics hypoxia, for 20 h
Measurement: 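HIF reporter luminescence in cells given 100 µM DFO for 20 h, using the mouse ldh-a hypoxia-response element, scored as per-plate z-scores; higher means greater loss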
Reading the numbers: z-score: higher = stronger loss of HIF reporter signal
The deposit covers about 21,000 reagents; this is a random part of those with a known target gene and a result. 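Primary screen; positive scores mean lost reporter signal, so the sign may be inverted from the usual convention.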 Reagents against one gene are numbered here. Further read-outs or replicates are left out here.

Knock-down of Cyp311a1 came out at: z-score, replicate 1 = -0.2. For S6k the deposit lists z-score, replicate 1 = 0.7. CG14177 (retired record) showed z-score, replicate 1 = -0.3. Silencing of Rpn9 came out at: z-score, replicate 1 = -0.2. Son scored z-score, replicate 1 = -0.3. CSN3 showed z-score, replicate 1 = 3.4.

CG14332 scored z-score, replicate 1 = -0.3. After knock-down of kn #1, the screen gave z-score, replicate 1 = 0. With knock-down of kn #2, the screen gave z-score, replicate 1 = -0.2. kn #3 showed z-score, replicate 1 = -0.5. kn #4 gave z-score, replicate 1 = -0.2. CG4438 scored z-score, replicate 1 = -0.3.

CG8060 scored z-score, replicate 1 = -0.2. Silencing of CG13154 resulted in: z-score, replicate 1 = 0.3. After knock-down of IKKbeta, the record shows z-score, replicate 1 = -0.2. Nep7 scored z-score, replicate 1 = -0.4. After knock-down of CG15083 the results were z-score, replicate 1 = -0.2. Against Ets96B, the entry reads z-score, replicate 1 = 0.3.

Against hlk #1, the entry reads z-score, replicate 1 = 0. Depletion of hlk #2 gave: z-score, replicate 1 = -0.2. Against CG14086 the deposit lists z-score, replicate 1 = -0.2. After knock-down of CG2972, the screen gave z-score, replicate 1 = 0. Atg14 showed z-score, replicate 1 = -0.4. For BicD, the values are z-score, replicate 1 = -0.2.

Against Ubqn, the values are z-score, replicate 1 = 0.8. Cyp4p3 scored z-score, replicate 1 = -0.2. Against CG32137 #1 the deposit lists z-score, replicate 1 = -0.3. CG32137 #2 gave z-score, replicate 1 = 0. Depletion of CG3368 gave: z-score, replicate 1 = -0.4. CG14221 scored z-score, replicate 1 = -0.1.

For pelo, the values are z-score, replicate 1 = 0.6. Against CG3909 the deposit lists z-score, replicate 1 = 0.2. For CG11601, the values are z-score, replicate 1 = -0.3. Depletion of mahj resulted in: z-score, replicate 1 = 1.1. With knock-down of Sox102F, the screen gave z-score, replicate 1 = -0.3. Silencing of CG6168 came out at: z-score, replicate 1 = -0.2.

Against CG14835, the values are z-score, replicate 1 = -0.3. CG10555 scored z-score, replicate 1 = -0.3. Depletion of Klp61F came out at: z-score, replicate 1 = 1.8. After knock-down of CG14759, the screen gave z-score, replicate 1 = -0.2.

Quoted from the entries so far for reference:
Ubqn | z-score, replicate 1: 0.8
Cyp4p3 | z-score, replicate 1: -0.2
CG32137 #1 | z-score, replicate 1: -0.3
CG32137 #2 | z-score, replicate 1: 0
CG3368 | z-score, replicate 1: -0.4
CG14221 | z-score, replicate 1: -0.1
pelo | z-score, replicate 1: 0.6
